# In paper PMC13229380:
# Results are given in words; binding and its absence hold for the method and conditions named. In cells and extracts the contact can be indirect. These calls come from enrichment with a bait or labelling near it, and not all partners need be listed.
# B1: protein phosphatase-6 catalytic domain (PP6C) (enzyme, UniProt Q9CQR6 1-305)
# chain: MAPLDLDKYVEIARQCKYLPENDLKRLCDYVCDLLLEESNVQPVSTPVTVCGDIHGQFYDLCELFRTGGQVPDTNYIFMGDFVDRGYYSLETFTYLLALKAKWPDRITLLRGNHESRQITQVYGFYDECQTKYGNANAWRYCTKVFDMLTVAALIDEQILCVHGGLSPDIKTLDQIRTIERNQEIPHKGAFCDLVWSDPEDVDTWAISPRGAGWLFGAKVTNEFVHINNLKLICRAHQLVHEGYKFMFDEKLVTVWSAPNYCYRCGNIASIMVFKDVNTREPKLFRAVPDSERVIPPRTTTPYFL
# B2: PP6R3 (protein, UniProt Q922D4 1-844)
# chain: MFWKFDLHSSSHIDTLLEREDVTLKELMDEEDVLQECKAQNRKLIEFLLKAECLEDLVSFIIEEPPQDMDEKIRYKYPNISCELLTSDVSQMNDRLGEDESLLMKLYSFLLNESPLNPLLASFFSKVLSILISRKPEQIVDFLKKKRDFVDLIIKHIGTSAIMDLLLRLLTCIEPPQPRQDVLNWLNEERIIQRLVEIVHPSQEEDRHSNASQSLCEIVRLSRDQMLQVQNSTEPDPLLATLEKQEIIEQLLSNIFHKEKNESAIVSAIQILLTLLETRRPTFEGHIEICPPGMSHSACSVNKSVLEAIRGRLGSFHELLLEPPKKSVMKTTWGILDPPVGNTRLNVIRLISSLLQTNTSSINGDLMELNSIGVILDMFFKYTWNNFLHTQVEICIALILASPFENAENGTITDQDSTGDNLLLKHLFQKCQLIERILEAWDTNEKKQAEGGRRHGYMGHLTRIANCIVHSTDKGPNSALVQQLIKDLPDEVRERWETFCTNSLGETNKRNTVDLAFSDYQMQQMTSNFIDQFGFNDEKFADQDDIGNVSFDRVSDINFTLNTNESGNIALFEACCKERIQQFDDGGSDEEDIWEEKHIAFTPESQRRSSSGSTDSEESTDSEEEDGAKQDLFESSSANTEDKMEVDLNEPPTWSANFDVPMETTHGAPLDSVGSDVWSTEEPMPTKETGWASFSEFTSSLSTKESLRSNSPVEMETSTESVDPLTPGAAALATQPEAPGSMAMEASSDGEEDAESTDKVTETVMNGGMKETLSLTVDAKTETAVFKSEEEKLSTSQDAACKDAEETPEPAEAKCTAPLTPSSSPEQRTDQPSMPSDPSVNGPV
# B3: ANKRD 28 (protein, UniProt Q505D1 1-1053)
# chain: MAFLKLRDQPSLVQAIFNGDPDEVRALIFKKEDVNFQDNEKRTPLHAAAYLGDAEIIELLILSGARVNAKDSKWLTPLHRAVASCSEEAVQILLKHSADVNARDKNWQTPLHIAAANKAVKCAESLVPLLSNVNVSDRAGRTALHHAAFSGHGEMVKLLLSRGANINAFDKKDRRAIHWAAYMGHIEVVKLLVSHGAEVTCKDKKSYTPLHAAASSGMISVVKYLLDLGVDMNEPNAYGNTPLHVACYNGQDVVVNELIDCGANVNQKNEKGFTPLHFAAASTHGALCLELLVGNGADVNMKSKDGKTPLHMTALHGRFSRSQTIIQSGAVIDCEDKNGNTPLHIAARYGHELLINTLITSGADTAKRGIHGMFPLHLAALSGFSDCCRKLLSSGFDIDTPDDFGRTCLHAAAAGGNLECLNLLLNTGADFNKKDKFGRSPLHYAAANCNYQCLFALVGSGASVNDLDERGCTPLHYAATSDTDGKCLEYLLRNDANPGIRDKQGYNAVHYSAAYGHRLCLQLIASETPLDVLMETSGTDMLSDSDNRATISPLHLAAYHGHHQALEVLVQSLLDLDVRNSSGRTPLDLAAFKGHVECVDVLINQGASILVKDYVLKRTPIHAAATNGHSECLRLLIGNAEPQNAVDIQDGNGQTPLMLSVLNGHTDCVYSLLNKGANVDAKDKWGRTALHRGAVTGHEECVDALLQHGAKCLLRDSRGRTPIHLSAACGHIGVLGALLQSATSVDANPAVVDNHGYTALHWACYNGHETCVELLLEQDVFQKIDGNAFSPLHCAVINDNEGAAEMLIDSLGASIVNATDSKGRTPLHAAAFTDHVECLQLLLSQNAQVNSADSTGKTPLMMAAENGQTNTVEMLVSSASADLTLQDKSKNTALHLACGKGHETSALLILEKITDRNLINATNAALQTPLHVAARNGLTMVVQELLGKGASVLAVDENGYTPALACAPNKDVADCLALILATMMPVSSSSPLTSLTFNAINRYTNTSKTVSFEALPIMRNEASSYCSFNNIGGEQEYLYTDVDELNDSDSETY
# B4: ANKRD 52 (protein, UniProt Q8BTI7 1-1076)
# chain: MGILSITDQPPLVQAIFSRDVEEVRSLLSQKENINVLDQERRTPLHAAAYVGDVPILQLLLMSGANVNAKDTLWLTPLHRAAASRNEKVLGLLLAHSADVNARDKLWQTPLHVAAANRATKCAEALAPLLSSLNVADRSGRSALHHAVHSGHLETVNLLLNKGASLNVCDKKERQPLHWAAFLGHLEVLKLLVARGADLSCKDRKGYGLLHTAAASGQIEVVKHLLRMGAEIDEPNAFGNTALHIACYLGQDAVAIELVNAGANVNQPNDKGFTPLHVAAVSTNGALCLELLVNNGADVNYQSKEGKSPLHMAAIHGRFTRSQILIQNGSEIDCADKFGNTPLHVAARYGHELLISTLMTNGADTARRGIHDMFPLHLAVLFGFSDCCRKLLSSGQLYSIVSSLSNEHVLSAGFDINTPDSLGRTCLHAAASGGNVECLNLLLSSGADLRRRDKFGRTPLHYAAANGSYQCAVTLVTAGAGVNEADCKGCSPLHYAAASDTYRRAEPHTASSHDAEEDELLKESRRKEAFFCLEFLLDNGADPSLRDRQGYTAVHYAAAYGNRQNLELLLEMSFNCLEDVESTVPVSPLHLAAYNGHCEALKTLAETLVNLDVRDHKGRTALFLATERGSTECVEVLTAHGASALIKERKRKWTPLHAAAASGHTDSLHLLIDSGERADITDVMDAYGQTPLMLAIMNGHVDCVHLLLEKGSTADAADLRGRTALHRGAVTGCEDCLAALLDHDAFVLCRDFKGRTPIHLASACGHTAVLRTLLQAALSTDPLDAGVDYSGYSPMHWASYTGHEDCLELLLEHSPFSYLEGNPFTPLHCAVINNQDSTTEMLLGALGAKIVNSRDAKGRTPLHAAAFADNVSGLRMLLQHQAEVNATDHTGRTALMTAAESGQTAAVEFLLYRGKADLTVLDENKNTALHLACSKGHEKCALMILAETQDLGLINATNSALQMPLHIAARNGLASVVQALLSRGATVLAVDEEGHTPALACAPNKDVADCLALILSTMKPFPPKDAVSPFSFSLLKNCGIAAAKTVGGCGALPHGASCPYSQERHGAIGLDGCYSE
# B5: Tnpo3 (Transportin-3) (protein, UniProt Q6P2B1 1-923)
# chain: MEGAKPTLQLVYQAVQALYHDPDPSGKERASFWLGELQRSVHAWEISDQLLQIRQDVESCYFAAQTMKMKIQTSFYELPTDSHASLRDSLLTHIQNLKDLSPVIVTQLALAIADLALQMPSWKGCVQTLVEKYSNDVTSLPFLLEILTVLPEEVHSRSLRIGANRRTEIIEDLAFYSSTVVSLLMTCVEKAGTDEKMLMKVFRCLGSWFNLGVLDSNFMANNKLLALLFEVLQQDKTSSNLHEAASDCVCSALYAIENVETNLPLAMQLFQGVLTLETAYHMAVAREDLDKVLNYCRIFTELCETFLEKIVCTPGQGLGDLRTLELLLICAGHPQYEVVEISFNFWYRLGEHLYKTNDEVIHSIFKAYIQRLLHALARHCQLEPDHEGVPEETDDFGEFRMRVSDLVKDLIFLIGSMECFAQLYSTLKEGNPPWEVTEAVLFIMAAIAKSVDPENNPTLVEVLEGVVHLPETVHTAVRYTSIELVGEMSEVVDRNPQFLDPVLGYLMKGLCEKPLASAAAKAIHNICSVCRDHMAQHFNGLLEIAHSLDSFMLSPEAAVGLLKGTALVLARLPLDKITECLSELCSVQVMALKKLLSQEPSNGISSDPTVFLDRLAVIFRHTNPIVENGQTHPCQKVIQEIWPVLSETLNKHRADNRIVERCCRCLRFAVRCVGKGSAALLQPLVTQMVNVYHVHQHSCFLYLGSILVDEYGMEEGCRQGLLDMLQALCIPTFQLLEQQNGLQNHPDTVDDLFRLATRFIQRSPVTLLRSQVVIPILQWAIASTTLDHRDANSSVMRFLRDLIHTGVANDHEEDFELRKELIGQVMSQLGQQLVSQLLHTCCFCLPPYTLPDVAEVLWEIMQVDRPTFCRWLENSLKGLPKETTVGAVTVTHKQLTDFHKQVTSAEECKQVCWALRDFTRLFR
# Biological target: m54.5p, C-terminally V5-tagged (m54.5p-V5) (murine cytomegalovirus (MCMV))
# Assay: affinity purification with mass spectrometry; V5 Co-IP LC-MS: V5-Trap magnetic agarose beads on lysates of m54.5p-V5-3T3 cells, with m54.5p-FLAG-3T3 cells as negative control; uninfected or MCMV-infected (24 hpi); lysis in 50 mM Tris-HCl pH 7.4, 300 mM NaCl, 1% Triton X-100, 1 mM EDTA, Benzonase; overnight at 4 °C; three biological replicates per condition
row,Binder,binding
1,B1,binds
2,B2,binds
3,B3,binds
4,B4,binds
5,B5,binds
